Results as given in US20110262445A1.
No constants are given. Whether binding was seen depends on the method and setting. Some binding calls cover weakened binding; strength is not graded here.

The chains behind the UniProt entries cited, without tags or fusion partners. Where a name states a change or a piece, a line headed by the entry shows the natural chain unless it says otherwise.
UniProt P29460: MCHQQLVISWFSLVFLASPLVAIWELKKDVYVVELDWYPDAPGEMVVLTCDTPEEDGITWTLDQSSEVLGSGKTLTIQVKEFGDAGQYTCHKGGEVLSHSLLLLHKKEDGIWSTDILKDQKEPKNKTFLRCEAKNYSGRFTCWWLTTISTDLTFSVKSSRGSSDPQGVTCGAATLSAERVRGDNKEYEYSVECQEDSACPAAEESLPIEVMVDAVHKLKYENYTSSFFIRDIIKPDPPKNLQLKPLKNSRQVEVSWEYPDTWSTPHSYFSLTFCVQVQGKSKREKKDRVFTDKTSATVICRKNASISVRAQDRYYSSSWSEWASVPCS
UniProt Q9NPF7: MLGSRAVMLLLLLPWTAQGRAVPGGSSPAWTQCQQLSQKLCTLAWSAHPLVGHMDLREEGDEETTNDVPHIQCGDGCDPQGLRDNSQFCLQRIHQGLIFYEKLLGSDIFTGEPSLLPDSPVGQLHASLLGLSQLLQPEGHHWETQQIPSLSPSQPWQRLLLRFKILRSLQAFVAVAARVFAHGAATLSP

How the values were obtained:
[1] = target: human IL-23 (human) (UniProt P29460); assay: ELISA, coated IL-23
[2] = target: human IL-12 (human) (UniProt P29460); assay: ELISA, coated IL-12
[3] = target: IL-23 bound to IL-12Rβ1 on the surface of transfected cells (human) (UniProt P29460+Q9NPF7+P42701); assay: flow cytometry: antibody added to IL-23 prebound to IL-12Rβ1 Jurkat cells, anti-human IgG-FITC
[4] = target: human IL-12 (human) (UniProt P29460); assay: ELISA
[5] = target: human IL-23 (human) (UniProt P29460); assay: ELISA

B1: Antibody 111 (antibody, human IgG1, kappa, V domains shown)
VH: EVQLVQSGAEVKKPGATVKISCKASGYTFSDYYLHWVRQAPGKGLEWMGWIDPENGDTEYAPKFQGRVTITADTSTDTGYLELSSLRSEDTAVYYCAANKELRYFDVWGQGTLVTVSS
VL: DIQMTQSPSSVSASVGDRVTITCRASQSISINLHWYQQKPGKAPKLLIYFASQSISGVPSRFSGSGSGTDFSLTINSLQPEDFARYYCQQSNSFPLTFGGGTKVEIKR
For B1, the binding [1] was “binds” and the binding [2] was “binds”.

B2: Antibody 1 (antibody, human IgG1, kappa, V domains shown)
VH: EVQLQQSGADLVRSGASIKLSCTASGFNIKDYYMHWVKQRPEQGLEWIGWIDPENGDTEYAPKFQGKATMTADTSSNTAYLQLSSLTSEDTAVYYCNACKELRYFDVWGAGTTVTVSS
VL: DIVLTQSPATLSVTPGDSVSLSCRASQSISINLHWYQQKSHESPRLLIKFASQSISGIPSRFSGYGSGTDFTLSINSVETEDFGRYFCQQSNSWPLTFGAGTKLELKR
In the case of B2, the binding [3] is reported as “binds”.

B3: Antibody 190 (antibody, human IgG1, kappa, V domains shown)
VH: QVQLVQSGAEVKKPGASVKVSCKASGYTFTDYYLHWVRQAPGQGLEWMGWIDPENGDTEYAPKFQGRVTMTTDTSTSTAYMELRSLRSDDTAVYYCNANKELRYFDVWGQGTMVTVSS
VL: DIQMTQSPSSVSASVGDRVTITCRASQSISINLHWYQQKPGKAPKLLIYFASQSISGVPSRFSGSGSGTDFSLTINSLQTEDFATYYCQQSNSFPLTFGGGTKVEIKR
For B3, the binding [1] was “binds” and the binding [2] was “binds”.

B4: Antibody 43 (antibody, human IgG1, kappa, V domains shown)
VH: QVQLVQSGAEVKKPGASVKVSCKVSGYTLTDYYMHWVRQAPGKGLEWMGWIDPENGDTEYAPKFQGRVTMTEDTSTDTAYMELSSLRSEDTAVYYCATCKELRYFDVWGQGTMVTVSS
VL: EIVMTQSPATLSVSPGERATLSCRASQSISINLHWYQQKPGQAPRLLIYFASQSISGIPARFSGSGSGTEFTLTISSLQSEDFAVYYCQQSNSWPLTFGGGTKVEIKR
For B4, the binding [1] was “binds”, the binding [4] was “binds” and the binding [5] was “binds”. For the same binder, the binding [2] was “binds”.

B5: Antibody 46 (antibody, human IgG1, kappa, V domains shown)
VH: QVQLVQSGAEVKKPGASVKVSCKASGYTFTDYYMHWVRQAPGQGLEWMGWIDPENGDTEYAPKFQGRVTMTTDTSTSTAYMELRSLRSDDTAVYYCARCKELRYFDVWGQGTMVTVSS
VL: EIVLTQSPATLSLSPGERATLSCRASQSISINLHWYQQKPGQAPRLLIYFASQSISGIPARFSGSGSGTDFTLTISSLEPEDFAVYYCQQSNSWPLTFGGGTKVEIKR
For B5, the binding [1] was “binds”, the binding [4] was “binds” and the binding [5] was “binds”. The binding [2] was “binds”.
